Laboratory results reported in paper PMC4800795.
Results are given in words; binding and its absence hold for the method and conditions named. In cells and extracts the contact can be indirect. These calls come from enrichment with a bait or labelling near it, and not all partners need be listed.

The chains behind the UniProt entries cited, without tags or fusion partners.
UniProt Q9UNN5: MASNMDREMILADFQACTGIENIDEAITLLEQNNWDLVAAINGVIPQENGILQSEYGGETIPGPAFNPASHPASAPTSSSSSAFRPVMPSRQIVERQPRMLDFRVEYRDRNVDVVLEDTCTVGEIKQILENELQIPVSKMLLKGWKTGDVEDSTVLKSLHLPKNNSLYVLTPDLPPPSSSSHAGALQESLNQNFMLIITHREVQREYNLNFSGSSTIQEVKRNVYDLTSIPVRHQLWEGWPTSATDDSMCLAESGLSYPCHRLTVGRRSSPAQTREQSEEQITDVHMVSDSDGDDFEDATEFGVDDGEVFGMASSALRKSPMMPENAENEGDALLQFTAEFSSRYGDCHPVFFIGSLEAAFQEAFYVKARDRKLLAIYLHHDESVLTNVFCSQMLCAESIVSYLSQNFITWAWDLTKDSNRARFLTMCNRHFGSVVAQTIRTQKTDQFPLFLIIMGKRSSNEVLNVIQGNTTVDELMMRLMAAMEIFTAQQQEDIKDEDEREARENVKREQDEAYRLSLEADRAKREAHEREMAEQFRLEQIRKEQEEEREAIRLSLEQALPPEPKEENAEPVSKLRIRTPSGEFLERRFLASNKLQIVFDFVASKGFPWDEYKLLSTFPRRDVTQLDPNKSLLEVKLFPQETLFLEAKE
UniProt O00410: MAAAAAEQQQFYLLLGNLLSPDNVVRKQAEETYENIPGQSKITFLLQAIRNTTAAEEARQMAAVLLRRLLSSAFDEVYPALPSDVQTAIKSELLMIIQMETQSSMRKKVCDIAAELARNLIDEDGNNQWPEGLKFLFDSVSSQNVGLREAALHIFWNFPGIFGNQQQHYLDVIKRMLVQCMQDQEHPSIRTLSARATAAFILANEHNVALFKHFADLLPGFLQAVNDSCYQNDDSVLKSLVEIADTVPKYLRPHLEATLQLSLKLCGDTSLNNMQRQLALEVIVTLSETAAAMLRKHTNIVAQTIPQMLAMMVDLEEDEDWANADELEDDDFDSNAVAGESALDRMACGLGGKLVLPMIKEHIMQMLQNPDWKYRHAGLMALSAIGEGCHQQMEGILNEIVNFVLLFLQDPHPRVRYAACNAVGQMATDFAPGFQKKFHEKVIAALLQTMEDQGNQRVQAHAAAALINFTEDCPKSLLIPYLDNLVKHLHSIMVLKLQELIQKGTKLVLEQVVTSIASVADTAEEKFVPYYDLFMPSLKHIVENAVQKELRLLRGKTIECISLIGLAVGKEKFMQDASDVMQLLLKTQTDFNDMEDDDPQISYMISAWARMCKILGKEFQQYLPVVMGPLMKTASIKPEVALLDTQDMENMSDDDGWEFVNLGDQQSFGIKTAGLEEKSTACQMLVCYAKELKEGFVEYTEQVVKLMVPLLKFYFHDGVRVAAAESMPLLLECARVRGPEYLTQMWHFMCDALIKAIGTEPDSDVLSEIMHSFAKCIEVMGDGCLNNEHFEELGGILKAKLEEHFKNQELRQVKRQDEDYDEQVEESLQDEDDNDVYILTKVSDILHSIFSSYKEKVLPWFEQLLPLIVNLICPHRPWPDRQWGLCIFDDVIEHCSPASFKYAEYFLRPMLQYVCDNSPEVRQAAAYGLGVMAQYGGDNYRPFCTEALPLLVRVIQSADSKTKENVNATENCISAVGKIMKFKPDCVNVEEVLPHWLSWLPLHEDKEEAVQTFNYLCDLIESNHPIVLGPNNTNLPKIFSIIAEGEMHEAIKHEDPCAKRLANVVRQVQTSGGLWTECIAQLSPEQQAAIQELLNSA

Molecular target: Flag-FAF1 (Fas-associated factor 1, wild type), in HeLa cells (human) (UniProt Q9UNN5)
Assay: affinity purification with mass spectrometry; anti-Flag immunoprecipitation from HeLa cells overexpressing Flag-FAF1; SDS-PAGE, silver staining; nano-UPLC-ESI-q-TOF tandem MS

binding: binds
Substance: IPO5/importin-β3, endogenous in HeLa cells (from UniProt O00410 1-1097)
